In patent publication US10543159B2, “Hair papilla cell activator” (Ezaki Glico Co., Ltd., priority 2014, dated 2020):
For at least one compound, name, drawing or mass did not settle the structure.

Legend:
Type in all cases: cell-based, human
Conditions in all cases: Example 4: 0.25% POs-Ca (R) or 50 μM minoxidil; Tukey, n=6
[1] = test system: tenascin C; test: Quantitative PCR gene expression in follicle dermal papilla cells: tenascin C
[2] = test system: VEGFB; test: Quantitative PCR gene expression in follicle dermal papilla cells: VEGFB
[3] = test system: fibronectin; test: Quantitative PCR gene expression in follicle dermal papilla cells: fibronectin
[4] = test system: CSPG4; test: Quantitative PCR gene expression in follicle dermal papilla cells: CSPG4
[5] = test system: VEGF; test: Quantitative PCR gene expression in follicle dermal papilla cells: VEGF
[6] = test system: Wnt5a; test: Quantitative PCR gene expression in follicle dermal papilla cells: Wnt5a
Procedure: (1) 500 μl of a special medium in which 4×10^4 cells/ml of follicle dermal papilla cells were suspended was dispensed into a type I collagen-coated 24-well cell culture plate (Corning), and cultured at a cell density of 1.0×10^4 cells/cm^2 at 37° C. for 42 hours. […] Each of the solutions (a) to (c) was mixed with DMEM high glucose (Sigma, USA) at a ratio of 1:9.
(3) The medium was aspirated from each well obtained in (1), the well was washed by adding 1 ml of 1×PBS (137 mM NaCl, 8.1 mM Na2HPO4, 2.68 mM KCl, 1.47 mM KH2PO4 (pH 7.4); Wako Pure Chemical Industries, Ltd.), and aspirating the PBS, 500 μl of DMEM high glucose was added, and the cells were incubated in a CO2 incubator at 37° C. for 5 hours. […]
(6) 0.5 μl of each of cDNA solutions diluted 2-fold with water, 1 μl of a solution containing 4 μM of each of primers 1 and 2 for each of the genes shown in Table 2, 5 μl of SYBR Premix Ex Taq II (Takara), and 3.5 μl of water were added, and quantitative PCR was performed on each of the genes. […] Fluorescence intensity after each cycle was measured.
(7) Using PGK1 and GAPDH as reference genes, a comparative analysis of expression levels was performed with the analysis software (Bio-Rad CFX Manager 3.0) included in CFX96Touch. Relative expression levels were calculated under the default conditions of the software. […]

Nc1cc(N2CCCCC2)nc(N)[n+]1[O-] [minoxidil]
effect on tenascin expression compared to the control [1]: little effect
effect on VEGFB expression compared to the control [2]: did not
effect on fibronectin expression compared to the control [3]: did not
effect on CSPG4 expression compared to the control [4]: little effect
effect on VEGF expression compared to the control [5]: little effect
effect on Wnt5a expression compared to the control [6]: little effect
